Results taken from PMC4850634, “Characterization of an A-kinase anchoring protein-like suggests an alternative way of PKA anchoring in Plasmodium falciparum” (Malaria Journal, 2016).

By UniProt entry, the sequences of proteins in these tests, tags left out. Where a name states a change or a piece, a line headed by the entry shows the natural chain unless it says otherwise.
UniProt Q8I3X8: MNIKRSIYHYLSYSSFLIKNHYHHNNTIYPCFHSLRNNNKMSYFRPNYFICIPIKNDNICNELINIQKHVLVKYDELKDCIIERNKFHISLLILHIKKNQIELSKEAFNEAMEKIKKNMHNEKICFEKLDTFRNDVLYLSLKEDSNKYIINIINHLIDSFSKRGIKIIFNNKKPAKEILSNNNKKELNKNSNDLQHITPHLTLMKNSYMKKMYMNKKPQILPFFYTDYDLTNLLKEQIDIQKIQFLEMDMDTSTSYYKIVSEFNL

How the values were obtained:
[1] = target: GST-PfAKAL (P. falciparum A Kinase anchoring protein-like fused to GST) (Plasmodium falciparum) (UniProt Q8I3X8); assay: pull-down; GST fusion protein (or GST) on glutathione beads incubated in a solution of purified (His)6-tagged recombinant protein; beads washed in RIPA buffer; SDS-PAGE and anti-polyhistidine western blot; GST-PfAKAL with (His)6-Pf14-3-3I also with or without 5 mM 3'-5'AMP; both purified
[2] = target: GST-PfPKA-R (Plasmodium falciparum); assay: as above

B1: (His)6-Pf14-3-3I (natural protein, Plasmodium falciparum, UniProt C0H4V6 1-262, looked up)
chain: MATSEELKQLRCDCTYRSKLAEQAERYDEMADAMRTLVEQCVNNDKDELTVEERNLLSVAYKNAVGARRASWRIISSVEQKEMSKANVHNKNVAATYRKKVEEELNNICQDILNLLTKKLIPNTSESESKVFYYKMKGDYYRYISEFSCDEGKKEASNCAQEAYQKATDIAENELPSTHPIRLGLALNYSVFFYEILNQPHQACEMAKRAFDDAITEFDNVSEDSYKDSTLIMQLLRDNLTLWTSDLQGDQTEEKSKDEGLE
notes: 14-3-3I protein, Plasmodium falciparum, PlasmoDB MAL8P1.69/PF3D7_0818200; amplified from a P. falciparum cDNA library with primers from the start to the stop codon, cloned into pRSFDuet; recombinant protein 30 kDa; source: E. coli BL21 Codon Plus, purified (Ni-NTA-agarose)
binding [1]: binds
binding [2]: binds

These are yes or no findings as the source states them, for the method shown. Binding calls can cover weak binding; strength is not graded here. Sequences can lack the tags named with a protein.
